# Test results as given in the supplement of paper PMC8728848.
# The other results are listed elsewhere or left out.
# How the values were obtained:
# Assay in all cases: glycan array binding signal (z-score within array); higher = stronger binding
# Conditions in all cases: glycan notation: IUPAC condensed, linker removed
# [1] = target: GlcNAc(b1-6)Gal(b1-4)GlcNAc
# Outline: (§1)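 Arrays were curated from the Consortium for Functional Glycomics database, 3228 in total, and kept only where the protein sequence was available. Binding is expressed as a within-array Z-score. This score was averaged across arrays of the same protein sequence at different concentrations or buffers and across linkers, and negative values can be read as non-binding.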
# GlcNAc(b1-6)GalNAc = target: GlcNAc(b1-6)GalNAc
# Outline: as §1
# GlcNAc3Prop(b1-4)GlcNAc = target: GlcNAc3Prop(b1-4)GlcNAc
# Outline: as §1
# [2] = target: GlcNAc6S(b1-3)Gal(b1-4)GlcNAc
# Outline: as §1
# Kdn(a2-3)Gal(b1-3)GalNAc = target: Kdn(a2-3)Gal(b1-3)GalNAc
# Outline: as §1
# Kdn(a2-3)Gal(b1-3)GlcNAc = target: Kdn(a2-3)Gal(b1-3)GlcNAc
# Outline: as §1
# Kdn(a2-3)Gal(b1-4)Glc = target: Kdn(a2-3)Gal(b1-4)Glc
# Outline: as §1
# Kdn(a2-3)Gal(b1-4)GlcNAc = target: Kdn(a2-3)Gal(b1-4)GlcNAc
# Outline: as §1
# [3] = target: Kdn(a2-3)Gal(b1-4)[Fuc(a1-3)]GlcNAc
# Outline: as §1
# Kdn(a2-6)Gal(b1-4)GlcNAc = target: Kdn(a2-6)Gal(b1-4)GlcNAc
# Outline: as §1
# [4] = target: Man(a1-2)Man(a1-2)Man(a1-3)Man
# Outline: as §1
# [5] = target: Man(a1-2)Man(a1-2)Man(a1-6)[Man(a1-3)]Man
# Outline: as §1
# Man(a1-2)Man(a1-3)Man = target: Man(a1-2)Man(a1-3)Man
# Outline: as §1
# [6] = target: Man(a1-2)Man(a1-3)[Man(a1-2)Man(a1-6)]Man
# Outline: as §1
# [7] = target: Man(a1-2)Man(a1-3)[Man(a1-2)Man(a1-6)]Man(a1-6)[Man(a1-2)Man(a1-2)Man(a1-3)]Man
# Outline: as §1
# [8] = target: Man(a1-2)Man(a1-3)[Man(a1-2)Man(a1-6)]Man(a1-6)[Man(a1-2)Man(a1-2)Man(a1-3)]Man(b1-4)GlcNAc(b1-4)GlcNAc
# Outline: as §1
# [9] = target: Man(a1-2)Man(a1-3)[Man(a1-6)]Man(a1-6)[Man(a1-2)Man(a1-3)]Man(b1-4)GlcNAc(b1-4)GlcNAc
# Outline: as §1
# [10] = target: Man(a1-2)Man(a1-6)[Man(a1-3)]Man(a1-6)[Man(a1-2)Man(a1-2)Man(a1-3)]Man
# Outline: as §1
# [11] = target: Man(a1-2)Man(a1-6)[Man(a1-3)]Man(a1-6)[Man(a1-2)Man(a1-2)Man(a1-3)]Man(b1-4)GlcNAc(b1-4)GlcNAc
# Outline: as §1
# Man(a1-3)[Man(a1-6)]Man = target: Man(a1-3)[Man(a1-6)]Man
# Outline: as §1
# [12] = target: Man(a1-3)[Man(a1-6)]Man(a1-6)[Man(a1-2)Man(a1-3)]Man(b1-4)GlcNAc(b1-4)GlcNAc
# Outline: as §1
# [13] = target: Man(a1-3)[Man(a1-6)]Man(a1-6)[Man(a1-3)]Man
# Outline: as §1
# [14] = target: Man(a1-3)[Man(a1-6)]Man(a1-6)[Man(a1-3)]Man(b1-4)GlcNAc(b1-4)GlcNAc
# Outline: as §1
# [15] = target: Man(a1-3)[Man(a1-6)]Man(b1-4)GlcNAc(b1-4)GlcNAc
# Outline: as §1
# Man(a1-6)Man = target: Man(a1-6)Man
# Outline: as §1
# Man(b1-4)GlcNAc = target: Man(b1-4)GlcNAc
# Outline: as §1
# Neu5Ac(a2-3)Gal = target: Neu5Ac(a2-3)Gal
# Outline: as §1
# [16] = target: Neu5Ac(a2-3)Gal(b1-3)GalNAc
# Outline: as §1
# [17] = target: Neu5Ac(a2-3)Gal(b1-3)GalNAc(b1-3)Gal(a1-4)Gal(b1-4)Glc
# Outline: as §1
# [18] = target: Neu5Ac(a2-3)Gal(b1-3)GalNAc(b1-4)[Neu5Ac(a2-3)]Gal(b1-4)Glc
# Outline: as §1
# [19] = target: Neu5Ac(a2-3)Gal(b1-3)GalNAc(b1-4)[Neu5Ac(a2-8)Neu5Ac(a2-3)]Gal(b1-4)Glc
# Outline: as §1
# [20] = target: Neu5Ac(a2-3)Gal(b1-3)GalNAc6S
# Outline: as §1
# [21] = target: Neu5Ac(a2-3)Gal(b1-3)GlcNAc
# Outline: as §1
# [22] = target: Neu5Ac(a2-3)Gal(b1-3)GlcNAc(b1-2)Man(a1-3)[Neu5Ac(a2-3)Gal(b1-3)GlcNAc(b1-2)Man(a1-6)]Man(b1-4)GlcNAc(b1-4)GlcNAc
# Outline: as §1
# [23] = target: Neu5Ac(a2-3)Gal(b1-3)GlcNAc(b1-3)Gal(b1-3)GlcNAc
# Outline: as §1
# [24] = target: Neu5Ac(a2-3)Gal(b1-3)GlcNAc(b1-3)Gal(b1-4)GlcNAc
# Outline: as §1
# [25] = target: Neu5Ac(a2-3)Gal(b1-3)GlcNAc(b1-3)GalNAc
# Outline: as §1
# [26] = target: Neu5Ac(a2-3)Gal(b1-3)GlcNAc6S
# Outline: as §1
# [27] = target: Neu5Ac(a2-3)Gal(b1-3)[Fuc(a1-4)]GlcNAc
# Outline: as §1
# [28] = target: Neu5Ac(a2-3)Gal(b1-3)[Fuc(a1-4)]GlcNAc(b1-3)Gal(b1-3)[Fuc(a1-4)]GlcNAc
# Outline: as §1
# [29] = target: Neu5Ac(a2-3)Gal(b1-3)[Fuc(a1-4)]GlcNAc(b1-3)Gal(b1-4)[Fuc(a1-3)]GlcNAc
# Outline: as §1
# [30] = target: Neu5Ac(a2-3)Gal(b1-3)[Neu5Ac(a2-3)Gal(b1-4)]GlcNAc
# Outline: as §1
# [31] = target: Neu5Ac(a2-3)Gal(b1-3)[Neu5Ac(a2-6)]GalNAc
# Outline: as §1
# Neu5Ac(a2-3)Gal(b1-4)Glc = target: Neu5Ac(a2-3)Gal(b1-4)Glc
# Outline: as §1
# [32] = target: Neu5Ac(a2-3)Gal(b1-4)GlcNAc
# Outline: as §1
# [33] = target: Neu5Ac(a2-3)Gal(b1-4)GlcNAc(b1-2)Man(a1-3)[GlcNAc(b1-2)Man(b1-4)GlcNAc(b1-2)Man(a1-6)]Man(b1-4)GlcNAc(b1-4)GlcNAc
# Outline: as §1
# [34] = target: Neu5Ac(a2-3)Gal(b1-4)GlcNAc(b1-2)Man(a1-3)[Neu5Ac(a2-6)Gal(b1-4)GlcNAc(b1-2)Man(a1-6)]Man(b1-4)GlcNAc(b1-4)GlcNAc
# Outline: as §1
# [35] = target: Neu5Ac(a2-3)Gal(b1-4)GlcNAc(b1-3)Gal
# Outline: as §1
# [36] = target: Neu5Ac(a2-3)Gal(b1-4)GlcNAc(b1-3)Gal(b1-3)GlcNAc
# Outline: as §1
# [37] = target: Neu5Ac(a2-3)Gal(b1-4)GlcNAc(b1-3)Gal(b1-4)GlcNAc
# Outline: as §1
# [38] = target: Neu5Ac(a2-3)Gal(b1-4)GlcNAc(b1-3)Gal(b1-4)GlcNAc(b1-3)Gal(b1-4)GlcNAc
# Outline: as §1
# [39] = target: Neu5Ac(a2-3)Gal(b1-4)GlcNAc(b1-3)Gal(b1-4)[Fuc(a1-3)]GlcNAc
# Outline: as §1
# [40] = target: Neu5Ac(a2-3)Gal(b1-4)GlcNAc(b1-3)GalNAc
# Outline: as §1
# [41] = target: Neu5Ac(a2-3)Gal(b1-4)GlcNAc(b1-6)[Gal(b1-3)]GalNAc
# Outline: as §1
# [42] = target: Neu5Ac(a2-3)Gal(b1-4)GlcNAc(b1-6)[Neu5Ac(a2-3)Gal(b1-3)]GalNAc
# Outline: as §1
# [43] = target: Neu5Ac(a2-3)Gal(b1-4)GlcNAc6S
# Outline: as §1
# [44] = target: Neu5Ac(a2-3)Gal(b1-4)[Fuc(a1-3)]GlcNAc
# Outline: as §1
# [45] = target: Neu5Ac(a2-3)Gal(b1-4)[Fuc(a1-3)]GlcNAc(b1-3)Gal
# Outline: as §1
binder,measurement,setting,value
"rPitB (Streptococcus pneumoniae), A0A0I7U739 (protein) MSEIEIINAKKIYHDVPVIENLNITIPKGSLFTLLGASGCGKTTLLRMIAGFNSIKDGEFYFDDTKINNMEPSKRNIGLVFQNYAIFPHLTVRDNVAFGLMQKKVPKEELIQQTNKYLELMQIAQYAD",glycan array binding signal (z-score),[1],-0.039
same,glycan array binding signal (z-score),GlcNAc(b1-6)GalNAc,-0.376
same,glycan array binding signal (z-score),GlcNAc3Prop(b1-4)GlcNAc,-0.316
same,glycan array binding signal (z-score),[2],1.15
same,glycan array binding signal (z-score),Kdn(a2-3)Gal(b1-3)GalNAc,-0.455
same,glycan array binding signal (z-score),Kdn(a2-3)Gal(b1-3)GlcNAc,0.362
same,glycan array binding signal (z-score),Kdn(a2-3)Gal(b1-4)Glc,-0.94
same,glycan array binding signal (z-score),Kdn(a2-3)Gal(b1-4)GlcNAc,0.167
same,glycan array binding signal (z-score),[3],-0.562
same,glycan array binding signal (z-score),Kdn(a2-6)Gal(b1-4)GlcNAc,-0.512
same,glycan array binding signal (z-score),[4],0.159
same,glycan array binding signal (z-score),[5],-0.585
same,glycan array binding signal (z-score),Man(a1-2)Man(a1-3)Man,0.348
same,glycan array binding signal (z-score),[6],-0.507
same,glycan array binding signal (z-score),[7],0.18
same,glycan array binding signal (z-score),[8],-0.397
same,glycan array binding signal (z-score),[9],-0.541
same,glycan array binding signal (z-score),[10],-0.16
same,glycan array binding signal (z-score),[11],-0.133
same,glycan array binding signal (z-score),Man(a1-3)[Man(a1-6)]Man,0.276
same,glycan array binding signal (z-score),[12],-1.04
same,glycan array binding signal (z-score),[13],0.005
same,glycan array binding signal (z-score),[14],-0.497
same,glycan array binding signal (z-score),[15],-0.391
same,glycan array binding signal (z-score),Man(a1-6)Man,-1.19
same,glycan array binding signal (z-score),Man(b1-4)GlcNAc,-0.12
same,glycan array binding signal (z-score),Neu5Ac(a2-3)Gal,-0.05
same,glycan array binding signal (z-score),[16],0.31
same,glycan array binding signal (z-score),[17],-0.604
same,glycan array binding signal (z-score),[18],0.43
same,glycan array binding signal (z-score),[19],0.622
same,glycan array binding signal (z-score),[20],0.486
same,glycan array binding signal (z-score),[21],0.208
same,glycan array binding signal (z-score),[22],-1.11
same,glycan array binding signal (z-score),[23],-0.301
same,glycan array binding signal (z-score),[24],0.522
same,glycan array binding signal (z-score),[25],-0.649
same,glycan array binding signal (z-score),[26],-1.12
same,glycan array binding signal (z-score),[27],-0.119
same,glycan array binding signal (z-score),[28],2.33
same,glycan array binding signal (z-score),[29],0.501
same,glycan array binding signal (z-score),[30],-0.305
same,glycan array binding signal (z-score),[31],-0.12
same,glycan array binding signal (z-score),Neu5Ac(a2-3)Gal(b1-4)Glc,-0.216
same,glycan array binding signal (z-score),[32],-0.6
same,glycan array binding signal (z-score),[33],-0.14
same,glycan array binding signal (z-score),[34],-0.486
same,glycan array binding signal (z-score),[35],0.094
same,glycan array binding signal (z-score),[36],-0.394
same,glycan array binding signal (z-score),[37],0.143
same,glycan array binding signal (z-score),[38],-0.412
same,glycan array binding signal (z-score),[39],0.277
same,glycan array binding signal (z-score),[40],-0.926
same,glycan array binding signal (z-score),[41],0.244
same,glycan array binding signal (z-score),[42],0.027
same,glycan array binding signal (z-score),[43],-0.589
same,glycan array binding signal (z-score),[44],-0.612
same,glycan array binding signal (z-score),[45],-0.738

# Reprinted at random: three records from the list, in no set order.
binder,measurement,setting,value
"rPitB (Streptococcus pneumoniae), A0A0I7U739 (protein) MSEIEIINAKKIYHDVPVIENLNITIPKGSLFTLLGASGCGKTTLLRMIAGFNSIKDGEFYFDDTKINNMEPSKRNIGLVFQNYAIFPHLTVRDNVAFGLMQKKVPKEELIQQTNKYLELMQIAQYAD",glycan array binding signal (z-score),[8],-0.397
same,glycan array binding signal (z-score),[23],-0.301
same,glycan array binding signal (z-score),Kdn(a2-3)Gal(b1-3)GalNAc,-0.455
